The values below come from publication PMC4424400.

Sequences of proteins named here, by UniProt entry; tags and fusion partners are left off.
UniProt P04775: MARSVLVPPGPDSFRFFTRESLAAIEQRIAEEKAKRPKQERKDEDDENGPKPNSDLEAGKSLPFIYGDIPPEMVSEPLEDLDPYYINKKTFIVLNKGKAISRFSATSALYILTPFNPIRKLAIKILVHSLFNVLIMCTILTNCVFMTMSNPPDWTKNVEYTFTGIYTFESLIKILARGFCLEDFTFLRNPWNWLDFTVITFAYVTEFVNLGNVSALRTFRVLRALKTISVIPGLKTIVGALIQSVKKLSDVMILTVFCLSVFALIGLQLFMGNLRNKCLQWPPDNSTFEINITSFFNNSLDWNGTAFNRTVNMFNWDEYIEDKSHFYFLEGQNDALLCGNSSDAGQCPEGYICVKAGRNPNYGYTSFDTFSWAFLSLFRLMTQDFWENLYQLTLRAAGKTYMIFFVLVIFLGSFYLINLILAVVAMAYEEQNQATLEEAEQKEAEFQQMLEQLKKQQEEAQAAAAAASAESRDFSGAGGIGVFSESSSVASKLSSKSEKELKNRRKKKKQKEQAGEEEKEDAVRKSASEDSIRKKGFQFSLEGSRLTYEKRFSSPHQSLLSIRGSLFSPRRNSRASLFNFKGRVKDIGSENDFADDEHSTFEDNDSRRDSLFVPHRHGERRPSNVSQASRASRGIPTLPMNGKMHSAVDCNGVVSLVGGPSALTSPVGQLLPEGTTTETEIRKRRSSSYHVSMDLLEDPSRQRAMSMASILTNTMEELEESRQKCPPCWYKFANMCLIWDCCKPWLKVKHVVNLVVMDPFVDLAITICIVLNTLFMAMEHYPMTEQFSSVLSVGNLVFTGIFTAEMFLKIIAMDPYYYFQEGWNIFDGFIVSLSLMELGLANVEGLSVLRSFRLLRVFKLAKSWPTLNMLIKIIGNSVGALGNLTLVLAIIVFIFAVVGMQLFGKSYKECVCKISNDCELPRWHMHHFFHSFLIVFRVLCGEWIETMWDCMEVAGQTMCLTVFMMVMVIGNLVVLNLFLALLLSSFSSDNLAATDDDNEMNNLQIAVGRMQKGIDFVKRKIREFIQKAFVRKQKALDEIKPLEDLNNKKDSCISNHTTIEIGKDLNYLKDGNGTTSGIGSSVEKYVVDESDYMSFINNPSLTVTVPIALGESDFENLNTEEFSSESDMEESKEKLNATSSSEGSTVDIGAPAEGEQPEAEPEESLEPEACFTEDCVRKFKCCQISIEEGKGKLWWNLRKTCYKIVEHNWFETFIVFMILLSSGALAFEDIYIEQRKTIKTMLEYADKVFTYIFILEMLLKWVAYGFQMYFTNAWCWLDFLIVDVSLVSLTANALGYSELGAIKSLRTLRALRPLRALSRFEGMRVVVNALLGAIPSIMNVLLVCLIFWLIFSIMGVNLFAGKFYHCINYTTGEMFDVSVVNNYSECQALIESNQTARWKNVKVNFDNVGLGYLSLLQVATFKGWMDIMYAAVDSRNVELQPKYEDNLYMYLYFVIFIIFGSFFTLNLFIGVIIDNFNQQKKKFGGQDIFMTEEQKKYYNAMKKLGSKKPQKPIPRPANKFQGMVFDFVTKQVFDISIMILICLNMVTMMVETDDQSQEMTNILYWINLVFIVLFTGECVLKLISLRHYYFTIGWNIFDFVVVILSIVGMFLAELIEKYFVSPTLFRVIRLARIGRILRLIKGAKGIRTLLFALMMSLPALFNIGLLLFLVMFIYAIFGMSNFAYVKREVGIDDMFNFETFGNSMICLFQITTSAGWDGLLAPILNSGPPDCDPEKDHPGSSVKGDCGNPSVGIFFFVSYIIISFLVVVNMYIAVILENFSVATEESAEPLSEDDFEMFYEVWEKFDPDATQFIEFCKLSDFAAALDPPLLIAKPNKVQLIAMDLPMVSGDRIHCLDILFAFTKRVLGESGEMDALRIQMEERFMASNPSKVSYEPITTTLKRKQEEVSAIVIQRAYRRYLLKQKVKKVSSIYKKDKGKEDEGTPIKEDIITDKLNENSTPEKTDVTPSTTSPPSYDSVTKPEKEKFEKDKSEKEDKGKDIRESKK

This assay concerns the target T1, myc-FGF12 (myc-fgf12-1b fusion construct) (UniProt P61329).
T1 sequence: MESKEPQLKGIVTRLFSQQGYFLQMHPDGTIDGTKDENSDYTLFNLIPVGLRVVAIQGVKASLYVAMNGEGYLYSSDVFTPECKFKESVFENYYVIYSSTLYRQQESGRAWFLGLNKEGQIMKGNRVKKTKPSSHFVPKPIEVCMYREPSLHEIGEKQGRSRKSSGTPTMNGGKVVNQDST
Kind of assay: co-IP; lysates of HEK-293 cells stably expressing rat Nav1.2, transfected with myc-FGF12 or myc-sprouty; immunoprecipitation with anti-myc antibody; blots probed with PanNav and myc antibodies.

These are yes or no findings as the source states them, for the method shown. Binding seen in cells or lysates may run through a third protein. Some entries that bind do so weakly or less than the wild type. Where a sequence is shown, tags or fusion partners need not be part of it.

With “Rat Nav1.2 alpha subunit stably expressed in HEK-293 cells (from UniProt P04775 1-2005)”, the binding result is reported as “binds”.
